{"source": "PubChem BioAssay AID1508600", "about": "(Functional Genomics Laboratory (NCATS/FGL), 2020)", "note": "The whole screen tested about 53,000 sequences, of which about 3,700 (7%) were called active.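 How the source made its calls: active means gene knockdowns whose robust z-score for IL-1 alpha signal is at least 2 or at most -2, so actives lie on both sides; inactive means the rest.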 The list shows a part of the results."}
{"test": "Components of the Cytosolic LPS Sensing Pathway: Gene Identification via Genome-wide siRNA Screen;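 further: robust z of the log signal after scaling to non-targeting control siRNA wells of the plate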", "conditions": "RAW264.7 macrophages, IL-1a HTRF, actives lie on both sides, screened at 100 nM (by protocol), cells primed 5 h with Pam3CSK4 first", "summary_of_the_method": "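Cells (RAW264.7, 1×10^4 per well) were transfected with siRNA at 100 nM and cultured 48h at 37 degrees C. Pam3CSK4 was added for 5 hours; LipidA transfection followed for 24 hour. IL-1a was then measured by HTRF.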"}
{"sequence": "CCGGUAUUUAGGAACUGCCTT against Irak2", "z-score": "inactive: -1.66"}
{"sequence": "GGGACUCACAAUUGUAGAATT against Efemp1", "z-score": "inactive: -0.058"}
{"sequence": "GGAGCAGCAUCCACACUUATT against E230015B07Rik", "z-score": "inactive: 0.81"}
{"sequence": "CCGUGGAACUUAAAUAGUUTT against Pard6g", "z-score": "active: 2.66"}
{"sequence": "CCAAUAUUUGGGAUACUGGTT against Sacm1l", "z-score": "inactive: -0.0488"}
{"sequence": "GCGAUGGCUAUUUUGAUUGTT against Nfkbib", "z-score": "inactive: 0.749"}
{"sequence": "GGAGAGAAAUUUGACACUCTT against Mgrn1", "z-score": "inactive: -0.0326"}
{"sequence": "GGACUUGGAGACAUUGCUATT against Ifi209", "z-score": "inactive: 0.548"}
{"sequence": "GCCUCUGGCAGAGAAAAGATT against 4930579K19Rik", "z-score": "inactive: -1.78"}
{"sequence": "CCAGCUUUUCCGAAUCAAUTT against Galnt7", "z-score": "inactive: 0.926"}
{"sequence": "CCGUUUACUUCGUCCAAGUTT against Crlf1", "z-score": "inactive: -0.134"}
{"sequence": "GGAAAAUGAUGGAGAGGAATT against Lysmd1", "z-score": "inactive: -0.289"}
{"sequence": "GCAGCUCCAAAUCCUGUUCTT against Asb16", "z-score": "inactive: -0.824"}
{"sequence": "GCCUUUCCUAGACUAUUACTT against Tor1a", "z-score": "inactive: 0.964"}
{"sequence": "GCUCAACAAAGCCUGUUCGTT against Zp3", "z-score": "active: 2.35"}
{"sequence": "GCGAUUAUUUCGCUUUGGATT against Pcdha12", "z-score": "inactive: -0.502"}
{"sequence": "UAUUCUAUCCGAACACCUUTT against Gm4884", "z-score": "active: 2.19"}
{"sequence": "GGUUAUGAAUCUUUUCCCATT against Cyb5b", "z-score": "inactive: -0.608"}
{"sequence": "GCUUUGAGACCUAAUGAUGTT against 1810024B03Rik", "z-score": "inactive: -0.469"}
{"sequence": "GCUUUAGAAUCCAAUACAATT against Zhx1", "z-score": "inactive: 0.466"}
{"sequence": "GGCCAAACGGAAAUUCAGCTT against Rax", "z-score": "inactive: 0.53"}
{"sequence": "GCUGAUCAAACAGAUUAUCTT against Fbxl3", "z-score": "inactive: 0.191"}
{"sequence": "CCUAUAGCCUAUGAGAGAGTT against Dcaf17", "z-score": "inactive: -0.306"}
{"sequence": "GCCAGAUCUCAAGAGGAUCTT against Chn2", "z-score": "inactive: 0.699"}
{"sequence": "GGACCACUUGUAGUAUUUGTT against Map7d1", "z-score": "inactive: 0.593"}
{"sequence": "GGAGAAAGAUGUUUACCGATT against Hyal2", "z-score": "inactive: -0.533"}
{"sequence": "GGAAAUUUGCUCAUUCUAATT against Olfr1204", "z-score": "inactive: 0.319"}
{"sequence": "GGUGAGAAAAGUGCAAGGCTT against Rps6kb2", "z-score": "inactive: 0.145"}
{"sequence": "GCUGUGUUCAUCCAAAUACTT against Orc5", "z-score": "inactive: 0.112"}
{"sequence": "GCCUAUGCCCUGCAUAAACTT against Hdac8", "z-score": "inactive: -0.484"}
{"sequence": "GCAAUAACAGAUCUCGUUUTT against B3galt5", "z-score": "inactive: 1.03"}
{"sequence": "GGAUUCAGGAACACGGAGATT against D17H6S53E", "z-score": "active: 2.29"}
{"sequence": "GCUUCGACGGUGUAUGGAATT against Cav3", "z-score": "inactive: 0.31"}
{"sequence": "GGAGUUAAAGUCACUGUUUTT against Mapkap1", "z-score": "inactive: -0.107"}
{"sequence": "GCUGUUUUAGUAGAGGUAATT against Tsfm", "z-score": "inactive: -0.708"}
{"sequence": "GGCUUUCUAAGAGACUAUUTT against Wnt7a", "z-score": "inactive: 0.567"}
{"sequence": "GGCUCUCACAGAUCCUAAATT against Abcd3", "z-score": "inactive: -1.5"}
{"sequence": "GGAAGAUUUGGAAAAUGGATT against Dph3", "z-score": "active: -2.19"}
{"sequence": "GGAACCUGUAAAAGCCUCUTT against Il1f6", "z-score": "inactive: 1.03"}
{"sequence": "CCCUUUUGGAAACACUUUUTT against Ehd2", "z-score": "inactive: -0.464"}
{"sequence": "GGCCAGGAAAAAAUCUGCATT against Neu1", "z-score": "inactive: -0.293"}
{"sequence": "CCAAGAAUCACUGUGUUUATT against Mcf2l", "z-score": "inactive: -0.182"}
{"sequence": "GGGACAGAUACUAAACUCUTT against Wfdc2", "z-score": "active: 3.49"}
{"sequence": "CCCAUCAUAAGGCAUGUAUTT against Olfr748", "z-score": "inactive: 0.126"}
{"sequence": "GCAGUUCAAGCAACGACGCTT against Pou3f1", "z-score": "inactive: -0.257"}
{"sequence": "UCUCUCAUGAACUUCCACATT against Olfr1321", "z-score": "inactive: 1.1"}
{"sequence": "GCUGGCACAAGGCAAAACCTT against Drd1", "z-score": "inactive: -0.639"}
{"sequence": "CCAUGAAUAGCAUCUUUGCTT against Adamtsl2", "z-score": "inactive: -0.25"}
{"sequence": "GGGCUCUGAGAAAAGACAATT against Spertl", "z-score": "inactive: 1.86"}
{"sequence": "CCAAUGGGCAAUGGAAUGATT against Sftpd", "z-score": "inactive: 1.03"}
{"sequence": "CCAAGGGUUGCUUCGAGCATT against Upk1a", "z-score": "inactive: -0.489"}
{"sequence": "CGUAGAAACAGUGCAGCAGTT against Ankrd54", "z-score": "inactive: 0.456"}
{"sequence": "CCGACAAACGCAAGGUGAUTT against Rtl8c", "z-score": "inactive: -0.382"}
{"sequence": "GGGAAACAAACAGAAGAACTT against Cfap65", "z-score": "inactive: -1.2"}
{"sequence": "GCUAUGUGUGGAACACCAUTT against Pus7", "z-score": "inactive: 0.238"}
{"sequence": "GGAAGAAGCGAAGGGCACUTT against Ndufb7", "z-score": "inactive: 0.353"}
{"sequence": "GCUCAAAACUCAAACUAGUTT against Zfp956", "z-score": "inactive: -0.475"}
{"sequence": "GGUCUUUCUAUACAUCCUATT against Qsox1", "z-score": "inactive: -1.43"}
{"sequence": "GGCCAUACUAUCUAUGCAATT against Ablim1", "z-score": "inactive: -0.446"}
{"sequence": "GGCAUGAACUCAACAGAUUTT against Tnfrsf21", "z-score": "inactive: 0.6"}
{"sequence": "GGACAAGUUUUCCUUUUCUTT against Phf2", "z-score": "inactive: 1.21"}
{"sequence": "CCUUAUCAGCCAGGGUUGGTT against Asb9", "z-score": "inactive: 1.3"}
{"sequence": "CCUGGGUUCUUUACCAUAATT against Naa35", "z-score": "inactive: -0.0128"}
{"sequence": "GGGCUAAUGAGAUAGGUUUTT against Slc19a2", "z-score": "active: 2.18"}
{"sequence": "CCUUUCUUGUGUUUACAGGTT against P2ry6", "z-score": "inactive: -0.347"}
{"sequence": "GGUCAGUCAGAACAUGCUATT against Xrcc2", "z-score": "inactive: 1.4"}
{"sequence": "GGAAAUGGUGAAUAUGCGUTT against Rnf146", "z-score": "inactive: -0.265"}
{"sequence": "GGAUUUUUGAUCUACCUAUTT against Slc16a7", "z-score": "inactive: -0.472"}
{"sequence": "GGCUCAGGUGCCAAUUGCATT against Mfng", "z-score": "inactive: 1.25"}
{"sequence": "GGUUCCUUUAACUUUGGUUTT against A730089K16Rik", "z-score": "active: 2.18"}
{"sequence": "GGAAGACGGCAAUCAACCATT against Cyp2c37", "z-score": "inactive: -0.368"}
{"sequence": "CCAGCAAUAGUUCAGCAGATT against Ccdc82", "z-score": "active: -2.72"}
{"sequence": "GCCUUACACUGUAGUCAGGTT against C130023O10Rik", "z-score": "inactive: 0.796"}
{"sequence": "GGAGAUGAGGAAGCUCUUCTT against Usp4", "z-score": "inactive: -0.747"}
{"sequence": "GGAUUGUGUUAGAACUUACTT against Blk", "z-score": "inactive: -1.1"}
{"sequence": "CCCUAAUAGUGAAUACAUGTT against Icos", "z-score": "inactive: 0.215"}
{"sequence": "CCUACGGACUCAGGAAAUATT against Tle6", "z-score": "inactive: -1.01"}
{"sequence": "GGAACCUCUCCUGAUCACCTT against Ces4a", "z-score": "inactive: 1.07"}
{"sequence": "CGAACACUUUAACAUUUUGTT against BC053393", "z-score": "inactive: 0.239"}
{"sequence": "GCAAAUUAUUGAGAGCCUGTT against Prl2a1", "z-score": "inactive: 1.01"}
{"sequence": "GCUUGCCUGACCUGAAACATT against Apool", "z-score": "active: -2.38"}
{"sequence": "GGUUGACUUUGUAACUCAATT against Agk", "z-score": "inactive: -0.283"}
{"sequence": "GGAAGGAAGCUAAAAAACGTT against Gnl3", "z-score": "active: 2.24"}
{"sequence": "CGUGGUCCUCGAUAACAAATT against Trak1", "z-score": "inactive: 1.03"}
{"sequence": "CCUGCCUAUUGUUUCAGAATT against Ifna11", "z-score": "inactive: 0.239"}
{"sequence": "GCUCAAGUGGGCCUUUAGCTT against Hpcal1", "z-score": "inactive: 0.2"}
{"sequence": "GGAUGAACAAAAUAAGACUTT against Gm5087", "z-score": "inactive: 0.643"}
{"sequence": "GGAGAAUCAGUAUUCCAUATT against Tmem44", "z-score": "inactive: 0.748"}
{"sequence": "CGACAACCAAAUCAUCACCTT against Gnb2", "z-score": "inactive: -0.341"}
{"sequence": "GCUAUAAGGCUUAAUAGGGTT against Dleu7", "z-score": "inactive: 1.97"}
{"sequence": "GGCCCAACACCAUGAACAATT against Ogfod2", "z-score": "inactive: -0.978"}
{"sequence": "GGGAUACUCCAGACAAGGUTT against Usp17ld", "z-score": "inactive: 0.142"}
{"sequence": "GGGCAAGGAUUCUUUGUAUTT against Rpl36a", "z-score": "inactive: -1.14"}
{"sequence": "GGAGGAGGAGCUGAAGAAATT against Atp12a", "z-score": "inactive: -0.679"}
{"sequence": "GGGCUUUGUUCGUGGUACATT against Zfp607b", "z-score": "inactive: 0.0654"}
{"sequence": "GCCAGUGUGUAUCAAAAAATT against Elof1", "z-score": "inactive: -0.5"}
{"sequence": "GGCCGCCCUAAAAAGAAGCTT against Olfr95", "z-score": "inactive: 1.29"}
{"sequence": "GGAUUUGUUAACCAGACAUTT against Cab39l", "z-score": "inactive: -0.0191"}
{"sequence": "GCGGUGUGUUUCAAUAGUUTT against Clec4n", "z-score": "inactive: 0.919"}
{"sequence": "GCGAUUGAAAACAUACUUCTT against Chst10", "z-score": "inactive: 0.497"}
{"sequence": "GGAUGAACAUUCUGGAAAUTT against Aggf1", "z-score": "inactive: -0.493"}
{"sequence": "GGAGAACAAAACCUCAGGATT against Hoxb7", "z-score": "inactive: -0.432"}
{"sequence": "GUAUGCUAGCAUGAUCAACTT against Ndufa3", "z-score": "inactive: 1.05"}
{"sequence": "GGAUAUGGAUUCUCCCGAUTT against Krtap19-5", "z-score": "inactive: -0.219"}
{"sequence": "GGAGAAGAAGGUGAAGAAGTT against Ppp1r3b", "z-score": "inactive: -0.775"}
{"sequence": "GGUCAUCAAACACAAUUUATT against Prlr", "z-score": "inactive: -0.356"}
{"sequence": "GGCCCAUUGUUUGAGCCCATT against A530013C23Rik", "z-score": "inactive: -0.961"}
